Data taken from PMC10701685.
Results are given in words; binding and its absence hold for the method and conditions named. In cells and extracts the contact can be indirect. Here binding means that the protein was enriched with, or labelled near, the bait; the list need not be complete. Sequences can lack the tags named with a protein.

By UniProt entry, the sequences of proteins in these tests, tags left out. Residues count along the entry.
UniProt P33897: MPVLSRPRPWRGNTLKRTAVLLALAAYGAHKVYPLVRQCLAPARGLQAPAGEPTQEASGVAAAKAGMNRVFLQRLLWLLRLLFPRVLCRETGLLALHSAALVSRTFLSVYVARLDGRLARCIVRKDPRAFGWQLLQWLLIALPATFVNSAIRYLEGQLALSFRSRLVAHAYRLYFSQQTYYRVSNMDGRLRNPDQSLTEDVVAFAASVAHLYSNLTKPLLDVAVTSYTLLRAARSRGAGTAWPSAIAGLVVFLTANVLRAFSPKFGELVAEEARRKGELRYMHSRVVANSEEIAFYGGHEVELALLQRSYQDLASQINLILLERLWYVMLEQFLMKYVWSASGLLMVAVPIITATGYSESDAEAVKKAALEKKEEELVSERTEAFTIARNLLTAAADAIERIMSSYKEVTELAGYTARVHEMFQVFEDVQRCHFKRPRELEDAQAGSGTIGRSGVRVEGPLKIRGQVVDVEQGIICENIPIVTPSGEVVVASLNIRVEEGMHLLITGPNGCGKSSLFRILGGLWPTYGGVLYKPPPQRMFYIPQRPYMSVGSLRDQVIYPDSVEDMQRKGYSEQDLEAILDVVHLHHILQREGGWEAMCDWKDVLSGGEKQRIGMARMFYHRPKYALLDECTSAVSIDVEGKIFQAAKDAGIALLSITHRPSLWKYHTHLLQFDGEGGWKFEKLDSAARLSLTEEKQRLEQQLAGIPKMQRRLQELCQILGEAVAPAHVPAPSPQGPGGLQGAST
UniProt Q99700: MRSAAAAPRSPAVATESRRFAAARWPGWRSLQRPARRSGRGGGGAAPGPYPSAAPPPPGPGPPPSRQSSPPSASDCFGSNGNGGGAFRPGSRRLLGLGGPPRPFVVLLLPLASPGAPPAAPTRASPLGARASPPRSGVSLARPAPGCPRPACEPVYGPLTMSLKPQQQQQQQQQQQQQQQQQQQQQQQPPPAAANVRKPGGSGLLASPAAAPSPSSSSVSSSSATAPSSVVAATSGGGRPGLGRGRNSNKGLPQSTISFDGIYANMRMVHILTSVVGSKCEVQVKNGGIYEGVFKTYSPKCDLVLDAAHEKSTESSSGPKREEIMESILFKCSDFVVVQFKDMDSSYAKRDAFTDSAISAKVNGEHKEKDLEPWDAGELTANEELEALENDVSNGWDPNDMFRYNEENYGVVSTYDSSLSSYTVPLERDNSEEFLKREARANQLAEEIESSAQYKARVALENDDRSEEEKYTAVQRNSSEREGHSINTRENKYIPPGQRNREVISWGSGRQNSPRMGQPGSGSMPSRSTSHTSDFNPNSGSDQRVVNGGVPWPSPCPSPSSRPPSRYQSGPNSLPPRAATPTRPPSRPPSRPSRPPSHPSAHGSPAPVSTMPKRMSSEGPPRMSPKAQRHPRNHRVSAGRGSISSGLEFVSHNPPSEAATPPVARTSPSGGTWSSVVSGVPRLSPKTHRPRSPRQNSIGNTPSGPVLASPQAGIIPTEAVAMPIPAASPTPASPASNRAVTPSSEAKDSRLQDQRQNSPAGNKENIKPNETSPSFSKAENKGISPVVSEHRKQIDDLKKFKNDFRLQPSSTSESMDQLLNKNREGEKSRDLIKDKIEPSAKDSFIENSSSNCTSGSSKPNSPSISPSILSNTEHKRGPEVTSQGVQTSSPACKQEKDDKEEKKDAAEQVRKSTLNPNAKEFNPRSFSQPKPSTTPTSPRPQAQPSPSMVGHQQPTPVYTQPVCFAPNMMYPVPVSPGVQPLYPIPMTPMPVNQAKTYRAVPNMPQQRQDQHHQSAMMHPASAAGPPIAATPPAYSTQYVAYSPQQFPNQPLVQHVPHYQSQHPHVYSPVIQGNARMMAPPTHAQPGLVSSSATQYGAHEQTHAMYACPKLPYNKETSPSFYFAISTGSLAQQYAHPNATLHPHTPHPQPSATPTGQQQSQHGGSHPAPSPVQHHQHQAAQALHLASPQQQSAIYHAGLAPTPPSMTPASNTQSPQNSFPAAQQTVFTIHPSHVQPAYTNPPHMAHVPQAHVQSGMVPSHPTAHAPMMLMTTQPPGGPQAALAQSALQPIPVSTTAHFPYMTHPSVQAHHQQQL
UniProt Q9BQ67: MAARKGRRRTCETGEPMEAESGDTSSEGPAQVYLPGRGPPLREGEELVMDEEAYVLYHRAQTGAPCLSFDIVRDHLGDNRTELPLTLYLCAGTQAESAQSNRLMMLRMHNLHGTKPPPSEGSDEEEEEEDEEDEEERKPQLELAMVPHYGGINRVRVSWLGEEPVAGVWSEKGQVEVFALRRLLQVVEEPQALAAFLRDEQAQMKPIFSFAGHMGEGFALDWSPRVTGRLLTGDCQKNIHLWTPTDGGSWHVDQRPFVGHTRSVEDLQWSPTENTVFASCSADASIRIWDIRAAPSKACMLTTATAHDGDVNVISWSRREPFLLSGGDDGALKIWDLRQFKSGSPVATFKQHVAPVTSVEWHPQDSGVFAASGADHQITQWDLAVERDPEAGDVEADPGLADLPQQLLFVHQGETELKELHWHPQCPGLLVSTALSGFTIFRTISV
UniProt Q12972: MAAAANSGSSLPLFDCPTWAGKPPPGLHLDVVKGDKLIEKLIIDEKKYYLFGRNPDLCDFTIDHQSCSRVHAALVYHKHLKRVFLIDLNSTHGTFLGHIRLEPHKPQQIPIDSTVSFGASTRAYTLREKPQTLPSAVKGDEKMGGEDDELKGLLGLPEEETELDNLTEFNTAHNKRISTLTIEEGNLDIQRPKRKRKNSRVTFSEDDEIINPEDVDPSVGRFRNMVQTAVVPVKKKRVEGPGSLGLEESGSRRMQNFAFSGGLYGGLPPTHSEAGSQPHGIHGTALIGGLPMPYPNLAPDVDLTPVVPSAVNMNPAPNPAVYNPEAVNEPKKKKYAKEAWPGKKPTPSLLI
UniProt O60826: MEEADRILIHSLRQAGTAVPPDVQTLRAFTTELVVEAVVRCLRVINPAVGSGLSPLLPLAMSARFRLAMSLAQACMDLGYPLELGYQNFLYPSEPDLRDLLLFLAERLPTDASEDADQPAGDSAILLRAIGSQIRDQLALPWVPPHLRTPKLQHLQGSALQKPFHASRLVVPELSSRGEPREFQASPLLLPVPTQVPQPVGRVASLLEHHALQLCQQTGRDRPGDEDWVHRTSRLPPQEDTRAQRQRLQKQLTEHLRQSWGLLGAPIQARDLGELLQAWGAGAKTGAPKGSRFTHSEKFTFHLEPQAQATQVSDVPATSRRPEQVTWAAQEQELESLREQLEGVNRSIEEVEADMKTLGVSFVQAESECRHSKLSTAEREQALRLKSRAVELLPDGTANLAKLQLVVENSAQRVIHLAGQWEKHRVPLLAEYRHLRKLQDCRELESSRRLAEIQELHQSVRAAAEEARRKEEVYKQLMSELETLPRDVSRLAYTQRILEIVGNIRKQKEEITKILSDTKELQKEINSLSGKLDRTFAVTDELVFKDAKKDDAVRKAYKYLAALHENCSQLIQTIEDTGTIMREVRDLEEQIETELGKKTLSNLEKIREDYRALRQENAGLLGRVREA
UniProt Q9NX14, residues 30-153: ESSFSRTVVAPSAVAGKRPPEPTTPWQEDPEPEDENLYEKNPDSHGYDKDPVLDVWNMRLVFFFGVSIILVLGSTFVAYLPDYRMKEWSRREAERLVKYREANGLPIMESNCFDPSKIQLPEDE
UniProt Q96IZ0: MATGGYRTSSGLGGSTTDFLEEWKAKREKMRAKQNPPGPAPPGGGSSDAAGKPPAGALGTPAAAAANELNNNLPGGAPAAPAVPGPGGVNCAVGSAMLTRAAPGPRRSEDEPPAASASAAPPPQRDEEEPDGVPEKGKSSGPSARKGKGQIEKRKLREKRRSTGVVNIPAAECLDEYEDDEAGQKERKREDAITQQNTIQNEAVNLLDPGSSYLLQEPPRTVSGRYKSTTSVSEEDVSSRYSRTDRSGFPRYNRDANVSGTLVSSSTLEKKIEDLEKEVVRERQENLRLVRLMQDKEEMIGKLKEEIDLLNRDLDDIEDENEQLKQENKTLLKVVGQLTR
UniProt Q9UL25: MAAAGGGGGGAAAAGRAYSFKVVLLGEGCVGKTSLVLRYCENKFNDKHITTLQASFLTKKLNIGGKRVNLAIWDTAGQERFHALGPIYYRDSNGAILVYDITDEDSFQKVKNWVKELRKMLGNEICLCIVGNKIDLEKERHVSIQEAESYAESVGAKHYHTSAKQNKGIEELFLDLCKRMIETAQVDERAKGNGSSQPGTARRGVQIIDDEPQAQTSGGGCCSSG

T1: Strep/FLAG-tagged TTC30A A375V (human) (UniProt Q86WT1)
T1 sequence: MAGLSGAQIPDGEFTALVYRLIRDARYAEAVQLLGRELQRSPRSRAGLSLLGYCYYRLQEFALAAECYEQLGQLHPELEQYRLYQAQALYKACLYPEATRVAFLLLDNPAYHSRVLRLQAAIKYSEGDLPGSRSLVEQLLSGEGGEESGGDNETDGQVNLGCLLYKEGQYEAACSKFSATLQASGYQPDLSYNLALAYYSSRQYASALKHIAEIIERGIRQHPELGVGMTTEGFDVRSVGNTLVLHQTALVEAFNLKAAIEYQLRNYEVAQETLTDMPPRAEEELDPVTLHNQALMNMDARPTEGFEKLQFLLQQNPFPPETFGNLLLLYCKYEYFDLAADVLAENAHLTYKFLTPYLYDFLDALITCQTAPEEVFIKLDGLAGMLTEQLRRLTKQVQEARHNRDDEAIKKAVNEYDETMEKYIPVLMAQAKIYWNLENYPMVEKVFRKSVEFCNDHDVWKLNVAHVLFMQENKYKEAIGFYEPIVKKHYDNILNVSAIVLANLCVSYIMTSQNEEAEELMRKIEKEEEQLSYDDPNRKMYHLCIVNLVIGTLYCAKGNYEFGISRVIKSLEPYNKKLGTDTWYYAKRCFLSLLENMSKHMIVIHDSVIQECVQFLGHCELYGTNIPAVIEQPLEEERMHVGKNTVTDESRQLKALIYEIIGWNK

T2: Strep/FLAG-tagged TTC30A wildtype (human) (UniProt Q86WT1)
T2 sequence: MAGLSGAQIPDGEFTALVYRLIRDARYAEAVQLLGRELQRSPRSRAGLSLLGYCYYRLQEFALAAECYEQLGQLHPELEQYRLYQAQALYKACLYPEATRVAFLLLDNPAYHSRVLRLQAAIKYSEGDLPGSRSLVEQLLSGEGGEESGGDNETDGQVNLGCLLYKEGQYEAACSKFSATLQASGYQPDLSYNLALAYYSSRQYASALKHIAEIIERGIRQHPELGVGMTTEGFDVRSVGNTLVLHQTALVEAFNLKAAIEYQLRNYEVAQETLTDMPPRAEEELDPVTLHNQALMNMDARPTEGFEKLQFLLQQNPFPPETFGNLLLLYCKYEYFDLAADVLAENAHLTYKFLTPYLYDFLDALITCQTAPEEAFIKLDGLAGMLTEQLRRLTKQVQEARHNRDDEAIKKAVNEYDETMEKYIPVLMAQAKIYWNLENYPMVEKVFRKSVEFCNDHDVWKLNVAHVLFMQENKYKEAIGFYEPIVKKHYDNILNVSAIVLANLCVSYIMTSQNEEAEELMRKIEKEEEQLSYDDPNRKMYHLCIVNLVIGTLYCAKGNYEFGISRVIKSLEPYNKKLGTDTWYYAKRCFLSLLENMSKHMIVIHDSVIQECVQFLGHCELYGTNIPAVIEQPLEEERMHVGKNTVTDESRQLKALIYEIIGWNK


What was measured:
[1] = molecular target: T1, Strep/FLAG-tagged TTC30A A375V (human); test: affinity purification with mass spectrometry; Strep/FLAG-tagged bait in lysate of transiently transfected HEK293T (1x TBS, 0.5% Nonidet-P40) on Strep-Tactin Superflow 1.5 h, three washes, Strep elution buffer; LC-MS/MS, label-free quantification, six biological replicates; Strep/FLAG-tagged RAF1 as control
[2] = molecular target: T2, Strep/FLAG-tagged TTC30A wildtype (human); test: as above

| Molecule | binding [1] | binding [2] |
| --- | --- | --- |
| ABCD1 (from UniProt P33897 1-745) | binds | binds |
| ATXN2 (from UniProt Q99700 1-1313) | binds | binds |
| GRWD1 (from UniProt Q9BQ67 1-446) | binds | binds |
| PPP1R8 (from UniProt Q12972 1-351) | binds | binds |
| RAP1GDS1 (protein, UniProt P52306 1-607) MDNLSDTLKKLKITAVDKTEDSLEGCLDCLLQALAQNNTETSEKIQASGILQLFASLLTPQSSCKAKVANIIAEVAKNEFMRIPCVDAGLISPLVQLLNSKDQEVLLQTGRALGNICYDSHEGRSAVDQAGGAQIVIDHLRSLCSITDPANEKLLTVFCGMLMNYSNENDSLQAQLINMGVIPTLVKLLGIHCQNAALTEMCLVAFGNLAELESSKEQFASTNIAEELVKLFKKQIEHDKREMIFEVLAPLAENDAIKLQLVEAGLVECLLEIVQQKVDSDKEDDITELKTGSDLMVLLLLGDESMQKLFEGGKGSVFQRVLSWIPSNNHQLQLAGALAIANFARNDANCIHMVDNGIVEKLMDLLDRHVEDGNVTVQHAALSALRNLAIPVINKAKMLSAGVTEAVLKFLKSEMPPVQFKLLGTLRMLIDAQAEAAEQLGKNVKLVERLVEWCEAKDHAGVMGESNRLLSALIRHSKSKDVIKTIVQSGGIKHLVTMATSEHVIMQNEALVALALIAALELGTAEKDLESAKLVQILHRLLADERSAPEIKYNSMVLICALMGSECLHKEVQDLAFLDVVSKLRSHENKSVAQQASLTEQRLTVES | binds | binds |
| SLC35F6 (protein, UniProt Q8N357 19-371) SINTLSAKWADNFMAEGCGGSKEHSFQHPFLQAVGMFLGEFSCLAAFYLLRCRAAGQSDSSVDPQQPFNPLLFLPPALCDMTGTSLMYVALNMTSASSFQMLRGAVIIFTGLFSVAFLGRRLVLSQWLGILATIAGLVVVGLADLLSKHDSQHKLSEVITGDLLIIMAQIIVAIQMVLEEKFVYKHNVHPLRAVGTEGLFGFVILSLLLVPMYYIPAGSFSGNPRGTLEDALDAFCQVGQQPLIAVALLGNISSIAFFNFAGISVTKELSATTRMVLDSLRTVVIWALSLALGWEAFHALQILGFLILLIGTALYNGLHRPLLGRLSRGRPLAEESEQERLLGGTRTPINDAS | binds | binds |
| HNRNPLL (protein, UniProt Q8WVV9 1-542) MSSSSSSPRETYEEDREYESQAKRLKTEEGEIDYSAEEGENRREATPRGGGDGGGGGRSFSQPEAGGSHHKVSVSPVVHVRGLCESVVEADLVEALEKFGTICYVMMMPFKRQALVEFENIDSAKECVTFAADEPVYIAGQQAFFNYSTSKRITRPGNTDDPSGGNKVLLLSIQNPLYPITVDVLYTVCNPVGKVQRIVIFKRNGIQAMVEFESVLCAQKAKAALNGADIYAGCCTLKIEYARPTRLNVIRNDNDSWDYTKPYLGRRDRGKGRQRQAILGEHPSSFRHDGYGSHGPLLPLPSRYRMGSRDTPELVAYPLPQASSSYMHGGNPSGSVVMVSGLHQLKMNCSRVFNLFCLYGNIEKVKFMKTIPGTALVEMGDEYAVERAVTHLNNVKLFGKRLNVCVSKQHSVVPSQIFELEDGTSSYKDFAMSKNNRFTSAGQASKNIIQPPSCVLHYYNVPLCVTEETFTKLCNDHEVLTFIKYKVFDAKPSAKTLSGLLEWECKTDAVEALTALNHYQIRVPNGSNPYTLKLCFSTSSHL | binds | binds |

Results, then the molecule that gave them:

| binding [1] | binding [2] | Molecule |
| --- | --- | --- |
| binds | binds | CCDC22 (from UniProt O60826 1-627) |
| binds | binds | NDUFB11 (from UniProt Q9NX14 30-153) |
| binds | binds | PAWR (from UniProt Q96IZ0 1-340) |
| binds | binds | RAB21 (from UniProt Q9UL25 1-225) |
| binds | binds | VPS11 (protein, UniProt Q9H270 1-941) MAAYLQWRRFVFFDKELVKEPLSNDGAAPGATPASGSAASKFLCLPPGITVCDSGRGSLVFGDMEGQIWFLPRSLQLTGFQAYKLRVTHLYQLKQHNILASVGEDEEGINPLVKIWNLEKRDGGNPLCTRIFPAIPGTEPTVVSCLTVHENLNFMAIGFTDGSVTLNKGDITRDRHSKTQILHKGNYPVTGLAFRQAGKTTHLFVVTTENVQSYIVSGKDYPRVELDTHGCGLRCSALSDPSQDLQFIVAGDECVYLYQPDERGPCFAFEGHKLIAHWFRGYLIIVSRDRKVSPKSEFTSRDSQSSDKQILNIYDLCNKFIAYSTVFEDVVDVLAEWGSLYVLTRDGRVHALQEKDTQTKLEMLFKKNLFEMAINLAKSQHLDSDGLAQIFMQYGDHLYSKGNHDGAVQQYIRTIGKLEPSYVIRKFLDAQRIHNLTAYLQTLHRQSLANADHTTLLLNCYTKLKDSSKLEEFIKKKSESEVHFDVETAIKVLRQAGYYSHALYLAENHAHHEWYLKIQLEDIKNYQEALRYIGKLPFEQAESNMKRYGKILMHHIPEQTTQLLKGLCTDYRPSLEGRSDREAPGCRANSEEFIPIFANNPRELKAFLEHMSEVQPDSPQGIYDTLLELRLQNWAHEKDPQVKEKLHAEAISLLKSGRFCDVFDKALVLCQMHDFQDGVLYLYEQGKLFQQIMHYHMQHEQYRQVISVCERHGEQDPSLWEQALSYFARKEEDCKEYVAAVLKHIENKNLMPPLLVVQTLAHNSTATLSVIRDYLVQKLQKQSQQIAQDELRVRRYREETTRIRQEIQELKASPKIFQKTKCSICNSALELPSVHFLCGHSFHQHCFESYSESDADCPTCLPENRKVMDMIRAQEQKRDLHDQFQHQLKCSNDSFSVIADYFGRGVFNKLTLLTDPPTARLTSSLEAGLQRDLLMHSRRGT |
| binds | binds | SPNS1 (protein, UniProt Q9H2V7 1-528) MAGSDTAPFLSQADDPDDGPVPGTPGLPGSTGNPKSEEPEVPDQEGLQRITGLSPGRSALIVAVLCYINLLNYMDRFTVAGVLPDIEQFFNIGDSSSGLIQTVFISSYMVLAPVFGYLGDRYNRKYLMCGGIAFWSLVTLGSSFIPGEHFWLLLLTRGLVGVGEASYSTIAPTLIADLFVADQRSRMLSIFYFAIPVGSGLGYIAGSKVKDMAGDWHWALRVTPGLGVVAVLLLFLVVREPPRGAVERHSDLPPLNPTSWWADLRALARNPSFVLSSLGFTAVAFVTGSLALWAPAFLLRSRVVLGETPPCLPGDSCSSSDSLIFGLITCLTGVLGVGLGVEISRRLRHSNPRADPLVCATGLLGSAPFLFLSLACARGSIVATYIFIFIGETLLSMNWAIVADILLYVVIPTRRSTAEAFQIVLSHLLGDAGSPYLIGLISDRLRRNWPPSFLSEFRALQFSLMLCAFVGALGGAAFLGTAIFIEADRRRAQLHVQGLLHEAGSTDDRIVVPQRGRSTRVPVASVLI |
| binds | binds | PDXDC1 (protein, UniProt Q6P996 1-788) MDASLEKIADPTLAEMGKNLKEAVKMLEDSQRRTEEENGKKLISGDIPGPLQGSGQDMVSILQLVQNLMHGDEDEEPQSPRIQNIGEQGHMALLGHSLGAYISTLDKEKLRKLTTRILSDTTLWLCRIFRYENGCAYFHEEEREGLAKICRLAIHSRYEDFVVDGFNVLYNKKPVIYLSAAARPGLGQYLCNQLGLPFPCLCRVPCNTVFGSQHQMDVAFLEKLIKDDIERGRLPLLLVANAGTAAVGHTDKIGRLKELCEQYGIWLHVEGVNLATLALGYVSSSVLAAAKCDSMTMTPGPWLGLPAVPAVTLYKHDDPALTLVAGLTSNKPTDKLRALPLWLSLQYLGLDGFVERIKHACQLSQRLQESLKKVNYIKILVEDELSSPVVVFRFFQELPGSDPVFKAVPVPNMTPSGVGRERHSCDALNRWLGEQLKQLVPASGLTVMDLEAEGTCLRFSPLMTAAVLGTRGEDVDQLVACIESKLPVLCCTLQLREEFKQEVEATAGLLYVDDPNWSGIGVVRYEHANDDKSSLKSDPEGENIHAGLLKKLNELESDLTFKIGPEYKSMKSCLYVGMASDNVDAAELVETIAATAREIEENSRLLENMTEVVRKGIQEAQVELQKASEERLLEEGVLRQIPVVGSVLNWFSPVQALQKGRTFNLTAGSLESTEPIYVYKAQGAGVTLPPTPSGSRTKQRLPGQKPFKRSLRGSDALSETSSVSHIEDLEKVERLSSGPEQITLEASSTEGHPGAPSPQHTDQTEAFQKGVPHPEDDHSQVEGPESLR |
| binds | binds | USMG5 (protein, UniProt Q96IX5 1-58) MAGPESDAQYQFTGIKKYFNSYTLTGRMNCVLATYGSIALIVLYFKLRSKKTPAVKAT |
